{"source": "the supplement of paper PMC8728848", "binders": {"B1": {"name": "MCL (Mus musculus), Q9Z2H6 (protein)", "chain": "MWLEESQMKSKGTRHPQLIPCVFAVVSISFLSACFISTCLVTHHYFLRWTRGSVVKLSDYHTRVTCIREEPQPGATGGTWTCCPVSWRAFQSNCYFPLNDNQTWHESERNCSGMSSHLVTINTEAEQNFVTQLLDKRFSYFLGLADENVEGQWQWVDKTPFNPHTVFWEKGESNDFMEEDCVVLVHVHEKWVWNDFPCHFEVRRICKLPGITFNWKPSK"}}, "experiment_in_all_cases": "glycan array binding signal (z-score within array); higher = stronger binding", "conditions_in_all_cases": "glycan notation: IUPAC condensed, linker removed", "key": {"Fuc(a1-2)Gal": {"biological_target": "Fuc(a1-2)Gal", "in_short": "(§1)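 The Consortium for Functional Glycomics database supplied 3228 glycan arrays, of which those lacking an available protein sequence were dropped. The binding signal, a within-array Z-score, was averaged across arrays of the same protein sequence and across linkers. Negative scores can be read as non-binding.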"}, "Fuc(a1-2)Gal(b1-3)GalNAc": {"biological_target": "Fuc(a1-2)Gal(b1-3)GalNAc", "in_short": "as §1"}, "[1]": {"biological_target": "Fuc(a1-2)Gal(b1-3)GalNAc(b1-3)Gal", "in_short": "as §1"}, "[2]": {"biological_target": "Fuc(a1-2)Gal(b1-3)GalNAc(b1-3)Gal(a1-4)Gal(b1-4)Glc", "in_short": "as §1"}, "[3]": {"biological_target": "Fuc(a1-2)Gal(b1-3)GalNAc(b1-4)[Neu5Ac(a2-3)]Gal(b1-4)Glc", "in_short": "as §1"}, "Fuc(a1-2)Gal(b1-3)GlcNAc": {"biological_target": "Fuc(a1-2)Gal(b1-3)GlcNAc", "in_short": "as §1"}, "[4]": {"biological_target": "Fuc(a1-2)Gal(b1-3)GlcNAc(b1-3)Gal(b1-4)Glc", "in_short": "as §1"}, "[5]": {"biological_target": "Fuc(a1-2)Gal(b1-3)[Fuc(a1-4)]GlcNAc", "in_short": "as §1"}, "Fuc(a1-2)Gal(b1-4)Glc": {"biological_target": "Fuc(a1-2)Gal(b1-4)Glc", "in_short": "as §1"}, "Fuc(a1-2)Gal(b1-4)Glc6S": {"biological_target": "Fuc(a1-2)Gal(b1-4)Glc6S", "in_short": "as §1"}, "Fuc(a1-2)Gal(b1-4)GlcNAc": {"biological_target": "Fuc(a1-2)Gal(b1-4)GlcNAc", "in_short": "as §1"}, "[6]": {"biological_target": "Fuc(a1-2)Gal(b1-4)GlcNAc(b1-3)Gal(b1-4)GlcNAc", "in_short": "as §1"}, "[7]": {"biological_target": "Fuc(a1-2)Gal(b1-4)GlcNAc(b1-3)Gal(b1-4)GlcNAc(b1-3)Gal(b1-4)GlcNAc", "in_short": "as §1"}, "[8]": {"biological_target": "Fuc(a1-2)Gal(b1-4)GlcNAc6S", "in_short": "as §1"}, "[9]": {"biological_target": "Fuc(a1-2)Gal(b1-4)[Fuc(a1-3)]GlcNAc", "in_short": "as §1"}, "[10]": {"biological_target": "Fuc(a1-2)Gal(b1-4)[Fuc(a1-3)]GlcNAc(b1-3)Gal(b1-4)[Fuc(a1-3)]GlcNAc", "in_short": "as §1"}, "[11]": {"biological_target": "Fuc(a1-2)Gal(b1-4)[Fuc(a1-3)]GlcNAc(b1-3)Gal(b1-4)[Fuc(a1-3)]GlcNAc(b1-3)Gal(b1-4)[Fuc(a1-3)]GlcNAc", "in_short": "as §1"}, "Fuc(a1-2)Gal6S(b1-4)Glc": {"biological_target": "Fuc(a1-2)Gal6S(b1-4)Glc", "in_short": "as §1"}, "[12]": {"biological_target": "Fuc(a1-2)Gal6S(b1-4)Glc6S", "in_short": "as §1"}, "[13]": {"biological_target": "Fuc(a1-2)Gal6S(b1-4)GlcNAc", "in_short": "as §1"}, "Fuc(a1-2)[Gal(a1-3)]Gal": {"biological_target": "Fuc(a1-2)[Gal(a1-3)]Gal", "in_short": "as §1"}, "[14]": {"biological_target": "Fuc(a1-2)[Gal(a1-3)]Gal(b1-3)GlcNAc", "in_short": "as §1"}, "[15]": {"biological_target": "Fuc(a1-2)[Gal(a1-3)]Gal(b1-4)Glc", "in_short": "as §1"}, "[16]": {"biological_target": "Fuc(a1-2)[Gal(a1-3)]Gal(b1-4)GlcNAc", "in_short": "as §1"}, "[17]": {"biological_target": "Fuc(a1-2)[Gal(a1-3)]Gal(b1-4)[Fuc(a1-3)]GlcNAc", "in_short": "as §1"}, "[18]": {"biological_target": "Fuc(a1-2)[Gal(a1-4)]Gal(b1-4)GlcNAc", "in_short": "as §1"}, "[19]": {"biological_target": "Fuc(a1-2)[GalNAc(a1-3)]Gal", "in_short": "as §1"}, "[20]": {"biological_target": "Fuc(a1-2)[GalNAc(a1-3)]Gal(b1-3)GlcNAc", "in_short": "as §1"}, "[21]": {"biological_target": "Fuc(a1-2)[GalNAc(a1-3)]Gal(b1-4)Glc", "in_short": "as §1"}, "[22]": {"biological_target": "Fuc(a1-2)[GalNAc(a1-3)]Gal(b1-4)GlcNAc", "in_short": "as §1"}, "[23]": {"biological_target": "Fuc(a1-2)[GalNAc(a1-3)]Gal(b1-4)[Fuc(a1-3)]GlcNAc", "in_short": "as §1"}, "[24]": {"biological_target": "Fuc(a1-2)[GalNAc(a1-4)]Gal(b1-4)GlcNAc", "in_short": "as §1"}, "[25]": {"biological_target": "Fuc(a1-2)[GalNAc(b1-3)]Gal", "in_short": "as §1"}, "Fuc(a1-3)GlcNAc": {"biological_target": "Fuc(a1-3)GlcNAc", "in_short": "as §1"}, "[26]": {"biological_target": "Fuc(a1-3)[Gal(b1-4)]Glc6S", "in_short": "as §1"}, "[27]": {"biological_target": "Fuc(a1-3)[Gal(b1-4)]GlcNAc", "in_short": "as §1"}, "[28]": {"biological_target": "Fuc(a1-3)[Gal(b1-4)]GlcNAc(b1-2)Man(a1-3)[Fuc(a1-3)[Gal(b1-4)]GlcNAc(b1-2)Man(a1-6)]Man(b1-4)GlcNAc(b1-4)GlcNAc", "in_short": "as §1"}, "[29]": {"biological_target": "Fuc(a1-3)[Gal(b1-4)]GlcNAc(b1-2)Man(a1-6)[Gal(b1-4)GlcNAc(b1-2)Man(a1-3)]Man(b1-4)GlcNAc(b1-4)GlcNAc", "in_short": "as §1"}, "[30]": {"biological_target": "Fuc(a1-3)[Gal(b1-4)]GlcNAc(b1-3)Gal(b1-3)[Fuc(a1-4)]GlcNAc", "in_short": "as §1"}, "[31]": {"biological_target": "Fuc(a1-3)[Gal(b1-4)]GlcNAc(b1-4)Gal(b1-4)[Fuc(a1-3)]GlcNAc", "in_short": "as §1"}, "[32]": {"biological_target": "Fuc(a1-3)[Gal(b1-4)]GlcNAc(b1-4)Gal(b1-4)[Fuc(a1-3)]GlcNAc(b1-4)Gal(b1-4)[Fuc(a1-3)]GlcNAc", "in_short": "as §1"}, "[33]": {"biological_target": "Fuc(a1-3)[Gal(b1-4)]GlcNAc6S", "in_short": "as §1"}, "[34]": {"biological_target": "Fuc(a1-3)[Gal3S(b1-4)]Glc6S", "in_short": "as §1"}, "[35]": {"biological_target": "Fuc(a1-3)[Gal3S(b1-4)]GlcNAc", "in_short": "as §1"}, "[36]": {"biological_target": "Fuc(a1-3)[Gal3S(b1-4)]GlcNAc6S", "in_short": "as §1"}}, "note": "This is one part of the list.", "data": [{"binder": "B1", "values": [{"measurement": "glycan array binding signal (z-score)", "setting": "Fuc(a1-2)Gal", "value": 0.017}, {"measurement": "glycan array binding signal (z-score)", "setting": "Fuc(a1-2)Gal(b1-3)GalNAc", "value": -0.088}, {"measurement": "glycan array binding signal (z-score)", "setting": "[1]", "value": 0.423}, {"measurement": "glycan array binding signal (z-score)", "setting": "[2]", "value": 0.494}, {"measurement": "glycan array binding signal (z-score)", "setting": "[3]", "value": 0.406}, {"measurement": "glycan array binding signal (z-score)", "setting": "Fuc(a1-2)Gal(b1-3)GlcNAc", "value": -0.16}, {"measurement": "glycan array binding signal (z-score)", "setting": "[4]", "value": 0.432}, {"measurement": "glycan array binding signal (z-score)", "setting": "[5]", "value": -0.857}, {"measurement": "glycan array binding signal (z-score)", "setting": "Fuc(a1-2)Gal(b1-4)Glc", "value": -0.61}, {"measurement": "glycan array binding signal (z-score)", "setting": "Fuc(a1-2)Gal(b1-4)Glc6S", "value": 0.132}, {"measurement": "glycan array binding signal (z-score)", "setting": "Fuc(a1-2)Gal(b1-4)GlcNAc", "value": 0.364}, {"measurement": "glycan array binding signal (z-score)", "setting": "[6]", "value": -0.7}, {"measurement": "glycan array binding signal (z-score)", "setting": "[7]", "value": -0.044}, {"measurement": "glycan array binding signal (z-score)", "setting": "[8]", "value": -0.355}, {"measurement": "glycan array binding signal (z-score)", "setting": "[9]", "value": -0.248}, {"measurement": "glycan array binding signal (z-score)", "setting": "[10]", "value": 0.521}, {"measurement": "glycan array binding signal (z-score)", "setting": "[11]", "value": 1.03}, {"measurement": "glycan array binding signal (z-score)", "setting": "Fuc(a1-2)Gal6S(b1-4)Glc", "value": -0.628}, {"measurement": "glycan array binding signal (z-score)", "setting": "[12]", "value": 0.194}, {"measurement": "glycan array binding signal (z-score)", "setting": "[13]", "value": -0.015}, {"measurement": "glycan array binding signal (z-score)", "setting": "Fuc(a1-2)[Gal(a1-3)]Gal", "value": -0.163}, {"measurement": "glycan array binding signal (z-score)", "setting": "[14]", "value": -0.331}, {"measurement": "glycan array binding signal (z-score)", "setting": "[15]", "value": -0.321}, {"measurement": "glycan array binding signal (z-score)", "setting": "[16]", "value": -0.79}, {"measurement": "glycan array binding signal (z-score)", "setting": "[17]", "value": 0.241}, {"measurement": "glycan array binding signal (z-score)", "setting": "[18]", "value": -0.106}, {"measurement": "glycan array binding signal (z-score)", "setting": "[19]", "value": -0.254}, {"measurement": "glycan array binding signal (z-score)", "setting": "[20]", "value": 0.999}, {"measurement": "glycan array binding signal (z-score)", "setting": "[21]", "value": -0.309}, {"measurement": "glycan array binding signal (z-score)", "setting": "[22]", "value": -0.144}, {"measurement": "glycan array binding signal (z-score)", "setting": "[23]", "value": -0.692}, {"measurement": "glycan array binding signal (z-score)", "setting": "[24]", "value": -0.24}, {"measurement": "glycan array binding signal (z-score)", "setting": "[25]", "value": -0.276}, {"measurement": "glycan array binding signal (z-score)", "setting": "Fuc(a1-3)GlcNAc", "value": 0.207}, {"measurement": "glycan array binding signal (z-score)", "setting": "[26]", "value": 0.025}, {"measurement": "glycan array binding signal (z-score)", "setting": "[27]", "value": -0.249}, {"measurement": "glycan array binding signal (z-score)", "setting": "[28]", "value": -0.322}, {"measurement": "glycan array binding signal (z-score)", "setting": "[29]", "value": 5.26}, {"measurement": "glycan array binding signal (z-score)", "setting": "[30]", "value": 0.601}, {"measurement": "glycan array binding signal (z-score)", "setting": "[31]", "value": -0.359}, {"measurement": "glycan array binding signal (z-score)", "setting": "[32]", "value": -0.559}, {"measurement": "glycan array binding signal (z-score)", "setting": "[33]", "value": -0.78}, {"measurement": "glycan array binding signal (z-score)", "setting": "[34]", "value": -0.456}, {"measurement": "glycan array binding signal (z-score)", "setting": "[35]", "value": 0.253}, {"measurement": "glycan array binding signal (z-score)", "setting": "[36]", "value": 0.053}]}]}
